Results from patent US20250034256A1 (EUCURE BEIJING BIOPHARMA, published 2025).
No constants are given. Whether binding was seen depends on the method and setting. Some binding calls cover weakened binding; strength is not graded here.

By UniProt entry, the sequences of proteins in these tests, tags left out. Where a name states a change or a piece, a line headed by the entry shows the natural chain unless it says otherwise.
UniProt Q15116: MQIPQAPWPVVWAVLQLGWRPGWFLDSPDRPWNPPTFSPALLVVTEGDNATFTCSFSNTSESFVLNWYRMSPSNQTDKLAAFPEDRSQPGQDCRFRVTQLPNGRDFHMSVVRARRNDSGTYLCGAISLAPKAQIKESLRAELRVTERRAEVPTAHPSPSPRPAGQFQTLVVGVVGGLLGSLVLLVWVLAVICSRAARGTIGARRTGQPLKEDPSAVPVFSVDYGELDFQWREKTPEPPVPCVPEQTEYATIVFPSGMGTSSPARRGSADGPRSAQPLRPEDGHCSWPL

Key:
[1] = biological target: Histidine-tagged human PD-1 protein (hPD-1-His) (human) (UniProt Q15116); test: SPR (Biacore T200), antibody captured on Protein A chip, human PD-1 (hPD-1-His by the method of paragraph 241 and paragraph 243) injected as analyte
[2] = biological target: chimeric (mouse and human) PD-1 (chiPD-1) on transfected CHO cells (chimeric (mouse and human)); test: flow cytometry on CHO cells transfected with chiPD-1, antibody at 1 µg/ml
[3] = biological target: human PD-1 (hPD-1) on transiently transfected CHO cells (human) (UniProt Q15116); test: flow cytometry on CHO cells transfected with human PD-1, anti-mIgG Fc-FITC
[4] = biological target: monkey (rhesus macaque) PD-1 (rmPD-1) on transfected CHO cells (rhesus macaque); test: flow cytometry on CHO cells transfected with rmPD-1, antibody at 1 µg/ml

binding [1] | binding [2] | binding [3] | binding [4] | Binder
binds |  |  |  | 3F1-mHvKv-IgG4-S228P (antibody, V domains shown, Chimeric antibody: mouse 3F1 variable domains, human IgG4 constant domains (CL, CH1, CH2, CH3) with S228P (EU numbering); also called 18-3F1-mHvKv-IgG4-S228P; 3F1-mHyKy-IgG4-S228P) VH: QVQLQQSGAELAKPGASVKMSCKASGYTFTSYWMHWVKQRPGQGLEWIGYINPSTGYTEYNQKFKDKATLTADKSSSTAYMQLSSLTSEDSAVYYCARGVRYYFDYWGQGTTLTVSS VL: DIVMSQSPSSLAVSAGEKVTMSCKSSQSLLNSRTRKNYLAWYQQKPGQSPKLLIYWASTRESGVPDRFTGSGSGTDFTLTISSVQAEDLAVYYCKQSYNLLTFGAGTKLELK
 | binds | binds | binds | mouse anti-hPD-1 antibody 3-6G1 (antibody, V domains shown, Mouse monoclonal antibody purified from ascites; also called 03-6G1) VH: QVQLQQSGAELAKPGASLKMSCKASGYTLTSYWMHWVKQRPGQGLEWIGYINPNTGYTEYNQKFKDKATLTADKSSSTAYMQLSSLTSEDSAVYYCARGTAYYFDYWGQGTTLTVSS VL: DIVMSQSPSSLAVSAGEKVTMSCKSSQSLLNSRTRKNYLAWYQQKPGQSPKLLIYWASTRESGVPDRFTGSGSGTDFTLTISSVQAEDLAVYYCKQSYNLQTFGGGTKLEIK
